The supplement of paper PMC3334620
The full ranking holds about 33,000 sequences; the median of “E-score (-0.5 to 0.5)” is about -0.0059, and the highest 2% start at about 0.26. Some of the results follow.

Biological target: T1, Cin5 (UniProt P40917)
T1 sequence: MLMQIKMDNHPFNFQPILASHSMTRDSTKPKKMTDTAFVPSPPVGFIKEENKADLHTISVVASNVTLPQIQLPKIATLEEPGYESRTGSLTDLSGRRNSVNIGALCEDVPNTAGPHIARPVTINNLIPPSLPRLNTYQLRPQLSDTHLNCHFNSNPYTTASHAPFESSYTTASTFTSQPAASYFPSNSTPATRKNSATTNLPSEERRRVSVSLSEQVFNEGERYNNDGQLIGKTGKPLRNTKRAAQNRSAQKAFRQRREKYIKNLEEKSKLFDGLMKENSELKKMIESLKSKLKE
Test: PBM E-score (8-mer binding enrichment) (E-score (-0.5 to 0.5)); higher = stronger / more preferred TF binding
Settings: protein concentration: 100 nM; construct: GST-full length
In short: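 Full-length yeast transcription factors or their DNA-binding domains, GST-tagged and expressed with PURExpress, were applied at about 100-200 nM to universal all-10-mer Agilent arrays. These arrays had been made double-stranded by primer extension on fresh or once-stripped slides. Detection used fluorescent anti-GST, normalisation used masliner, and E-scores for ungapped eight-base words pooled with reverse complements came from the Universal PBM Analysis Suite.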

Sequence	PBM E-score
CCGTCGAA	-0.0555
ACGAGGTA	0.0339
AAATATTA	0.315
ATCAATCC	0.192
CACAGGCC	-0.173
GGGCACAC	-0.165
CATTTCGA	0.17
CTGGAATC	-0.0378
TCATTGAA	-0.0998
GAGCGGGA	-0.0794
AAATTATA	0.262
CATCTGGC	-0.0931
CCGGAAGG	-0.0218
ACGTTGAG	0.0678
AAGCCAAA	0.0201
AACTATGC	0.0893
CTTTAACC	-0.0704
ATAAACTG	0.108
CATAGCCC	-0.222
TAGAATAA	0.144
CTTGGTGA	-0.0795
AATTAAGC	0.147
CCTGAGTA	0.113
CTCAGTAA	-0.0762
CTGGCCGC	-0.128

Sequence	PBM E-score
GAATAAGA	0.089
AGCGATGG	-0.142
AAATGCTG	0.0805
GAGACTAC	-0.0932
CCGAAAAC	-0.0641
AAGACTGA	-0.0368
AATGGTAG	0.0654
GACCACAA	-0.147
GTCGCTGA	0.02
CCAATTAC	0.218
CATCAAGG	-0.0793
GTACTAAC	0.14
ACATACAG	0.117
CTCCGTGA	-0.0456
ACCTACAG	0
CTAACTGC	0.0117
CGCAGAGC	-0.131
ATGCCCCC	-0.383
AACCCCCC	-0.468
GCATCTTA	0.225
ATCCCGCA	0.135
CCTATGCG	0.0467
AACCGTCG	-0.152
CATCGTGC	-0.106
AAAAGCGA	0.218

Sequence	PBM E-score
GTCCTTGA	-0.234
ATTATAAG	0.188
GCTTAGGA	-0.0288
GAGGGCAC	-0.282
CCATTACA	0.223
CGGAGCCA	-0.125
ACCCTTTA	-0.0324
ACGGCAAA	0.0612
AGCCCCCC	-0.435
CAATATCG	0.23
ACTTTGGG	-0.0597
AAGGTACG	-0.0381
CAGACTGC	-0.105
GTGAATGA	0.1
AGACCGCG	-0.0722
ACTCGTAG	-0.149
TCTAAGAA	0.164
ACAATTAC	0.143
GCCAGCGC	-0.252
AACCCCTA	0.0787
ATACTTGA	-0.134
AGAGATAG	0.0512
GCCGGGCA	-0.129
ACTGGTTG	-0.0672
CCTATCAG	-0.059

Sequence	PBM E-score
CAGATACC	-0.0906
AGCCGATC	0.0644
ATCAACGG	0.118
AGTCAGAC	-0.0891
GAAAATGC	-0.0017
GCAATGCA	-0.053
AGAGCCTG	-0.163
CCACCTGG	-0.258
ATTTGTGC	0.00529
ATGTTTCG	0.195
CGTGGTAA	-0.0555
TAAGGAGA	-0.122
ACCGCTAT	0.0393
ATCCACCG	0.0187
CCCTTGAA	-0.0161
CCTCTTTC	-0.118
GTCCACCA	-0.0928
GCGTGAGC	0.072
CAGTTTGG	-0.0218
CATTACAC	0.159
GGTTCTAA	0.0807
CGATATGC	0.0862
CTCTAACA	-0.0488
AAGTGGCG	0.198
CTGAAGGA	-0.105

Sequence	PBM E-score
CATTCTGG	0.0333
AGTAGTCC	0.0913
CTCTAGTA	0.0297
AATTCTTC	0.0767
ACCACGAT	0.161
GCTCGTGA	0.00773
ACCCACCA	0.0938
CATCCGGA	0.0595
ATGTCGAA	-0.0258
GGGGCGGA	-0.142
TACACTCA	0.0959
AATGAATG	0.234
CTAAAACA	0.0143
AGACTCAA	-0.143
CATTAGAG	-0.115
CTTAGAAC	-0.0472
CCTCGGTC	-0.249
TGTTTTAA	0.117
CGAATGGA	0.0967
CATACACA	0.0703
AATTAAAA	0.0759
ACGTTTAC	-0.0238
ATTCCCGA	0.0531
GAGAAAGA	0.136
TCTAGGAA	-0.0991

Sequence	PBM E-score
CGAAAACC	-0.0599
AATATTAT	0.343
CGTTAACC	0.0331
GACTGAAA	-0.0204
AGCCATCA	0.131
AGATACTA	0.0732
AGGCCCTA	-0.228
GAACAGCC	-0.205
ACATTCGG	0.11
AGAGTCAC	-0.196
ACTAGTAA	0.205
CACTTGGA	0.0127
CAGGTAGG	-0.0808
TGACTACA	-0.0081
AACCATAC	0.0146
CAACTGCG	-0.12
CTCCCTCC	-0.137
GAGCAAAA	-0.0887
ATCCAGGA	0.0322
CACTACGC	-0.239
TGGATCCA	-0.0145
GGCGAAAC	0.0435
GTAGATGA	0.146
GATCCCAC	0.143
ATTTGCGC	0.0411

Sequence	PBM E-score
AGTGTTAT	0.165
AATCTTAG	0.0668
AAAGAGGG	-0.118
AGCGCTAC	-0.238
CTGCCATA	0.11
AGCATATC	0.117
GCGTTTGA	-0.0954
AATATTGT	0.28
AATCTAAC	0.0851
TAACCATA	0.0856
ACTACGTA	0.169
ACACCATA	0.0793
CCCATCTA	0.0302
ATGATCCA	-0.0422
CTACGTGA	-0.0669
CCCGAGAG	-0.214
CCCAACTA	0.245
AATTCGCC	0.154
ATAGCTGC	0.145
GCGGGCAA	0.0765
CATTCGTC	0.0974
CTAAGTCA	0.0222
GGTTGGCA	-0.177
CGCGGTCA	0.00133
ACTTACAG	0.0272

2 entries from above in another layout.
Sequence | PBM E-score
ATAGCTGC | 0.145
GCGGGCAA | 0.0765

An excerpt from the list above:
Sequence	PBM E-score
ACAATTAC	0.143
GCCAGCGC	-0.252
AACCCCTA	0.0787

Next entries follow:

Sequence	PBM E-score
GAACCTAC	-0.0937
ACATCGGG	-0.00315
ACTTAGTA	0.188
AAGCCTGA	-0.129
GTACTAGA	0.0607
GCTGACAA	0.203
AAAATCCC	-0.0252
CTTGCAAC	0.125
GCCGCAAC	-0.0358
ATACAGAG	0.0186
AGTACGTG	-0.096
GGTGCCCA	-0.207
ATCAACGC	-0.0375
AGAAGAAG	-0.101
CTCAGGCA	0.0255
CCAGCTAG	-0.202
CCTGTGCC	-0.219
GATAGCGA	0.0136
ATACCGCA	0.00556
CTGGTCCA	-0.0813
AATACGAT	0.13
CCGATGCA	0.0504
CCGGATCA	0.11
GTTGGCGA	-0.0854
CTCTACTA	0.064

Sequence	PBM E-score
ATACAGGG	0.121
CAGTCTCG	-0.225
ATACGCGA	-0.0925
ACCGTTGA	-0.128
CTGACCCC	-0.247
ACACTTAT	0.0573
CACTTCAG	-0.102
ACCGTACT	0.0396
AATCCTCT	-0.142
CAGGCGGC	-0.168
CATATCGA	0.138
GGTTGGGA	-0.0704
CTCAACAC	0.0856
AACACAGC	0.205
CGGCTTGC	0.0619
ATCTATAC	0.131
CCACTCCC	-0.0617
GACATCAA	0.235
CTCCCGCA	-0.069
GGTAGTAC	-0.0268
ACCCACCC	0.323
AGAAAGCA	0.192
TGAAAACA	0.112
AACACAAG	-0.0154
ACTTGTGA	0.101

4 entries picked at random from the list so far:
Sequence	PBM E-score
CATATCGA	0.138
ATACGCGA	-0.0925
ATCTATAC	0.131
CAGGCGGC	-0.168

(cont.)

Sequence	PBM E-score
AAGGTATG	0.159
ATTCGAGA	-0.0222
GGAAGGAA	-0.06
AGTCCCTC	-0.24
GCCCGAAC	0.0545
ACTCCGTC	0.0828
AGCTAGCC	-0.0358
CCTCAACC	-0.198
AAGTGGGA	0.177
CTCTCGGC	-0.143
AGGGCACA	0.0508
GATCCTCA	0.0179
AGCATGAT	0.0431
GGGATCCC	-0.117
CAGTCTCA	-0.0104
ATGCCAGC	-0.093
AGTAACAT	0.14
ATGGACGC	-0.0507
AGACGTAG	-0.00459
AAGGCCGA	-0.0702
ACCTACGC	0.0255
CGCGAACG	-0.0651
AGCTGACC	0.11
CGGCCTCC	-0.194
GAATAGGC	0.065

Sequence	PBM E-score
AAACGATC	-0.0873
GCTGGAAA	-0.0311
GAGGCATA	-0.00938
CATTTCAA	0.178
TGCCTGAA	-0.173
AATCTCCG	0.0667
AGGAATAG	0.0234
ACTCACAG	0.0289
CTCCGATC	-0.161
CTCGGCCC	-0.235
ATCGCCTC	0.047
ATAAACCA	0.00546
AAAGTATC	0.115
ACTGCCGG	0.0623
AGTGCTTC	-0.121
GGGATGAA	-0.0257
AAAACTTC	-0.0941
GAAGGTGA	-0.0364
ACTACTGA	-0.0575
AGCATTAC	0.0249
CTCGGACA	-0.0297
GCATACCC	0.1
CTCTGCCA	-0.187
CAAACGTC	-0.147
CCTAACTC	-0.0248

Sequence	PBM E-score
GCTCGTTA	-0.0654
ATAACAAC	0.2
ATATTAAC	0.28
CGTAGGCA	-0.195
AATGGCTC	0.0552
CCACAATA	0.00199
CTAATTGA	0.0779
GCAATCGC	-0.104
ATCTGATA	-0.00845
ATTGTCTA	0.273
GCGGTAAA	0.0216
ACCTCCCC	-0.144
CCCGCCCG	0.0583
ACGCTCCA	-0.0796
ATACCTCC	-0.237
AACATACC	0.0214
TCTCCGAA	-0.105
AGATTGAA	0.0552
TCATACCA	0.167
ACAGGATA	-0.0136
CGCGGTAG	-0.00033
GCTACAGA	-0.164
CCTGACCA	0.0699
CAGACTTA	-0.169
ATCTCAAA	0.166

Sequence	PBM E-score
GCGACAAA	0.0727
ACACTGAA	0.2
TGTGGCAA	-0.0204
GACTCCAA	-0.226
CAAGACTA	-0.0264
CATGGGAG	-0.0247
GATATCAA	0.0641
GAACTGCA	0.0151
CGGGAACA	0.123
CCAAGCTA	-0.133
AAATAGAG	-0.0761
GACGCCAA	-0.219
AACGACAG	-0.0436
GAAGAGTA	0.0291
CCCAGAAA	0.0725
GGGCAAAC	0.00032
TAGCCGGA	0.0114
CTCGGCAC	-0.0879
ACGTGTGG	-0.161
CGTTCTGC	0.0332
AAGGCTAC	-0.135
ACCAAGCC	-0.172
AGTTGTGG	0.232
AAACGAGC	-0.0828
ACACGTCT	-0.177

Sequence	PBM E-score
CTTGTACA	-0.112
ATTCACCA	-0.0335
CTACACCA	-0.00077
CCAACATC	0.109
AAACCGCT	0.0176
ACATGGTC	0.0743
CCTGAGCC	-0.193
AGTTTAAT	0.0382
TCTTGGCA	0.0567
AATCTAAG	0.0243
CATCCGTA	0.191
CCGCCAAG	-0.175
CACACGTG	-0.111
GAGCACCA	-0.128
ACAAGACG	-0.0511
CGCCTGGC	-0.199
AGGGGTGG	0.00209
GATCAAGC	-0.0258
CAAGACTG	-0.0812
